Measurements reported in PubChem BioAssay AID1259405 (NCATS, 2018).
Purpose: 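Knock-downs that lift recombinant protein yield in hamster ovary cells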 (primary screen). System: Chinese hamster CHO-K1 ovary cells with stable secreted eGFP expression. Knock-down reagent: single siRNA against mouse genes, 0.8 pmol siRNA per well (2 µl of 400 nM stock). Timing: 3 days. Detection: 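Percent of the per-plate non-targeting control median for intracellular GFP per well by laser scanning cytometry and for cell viability by ATP luminescence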. Scale: GFP, % of control: higher = more GFP per well, higher productivity; viability (ATP), % of control: higher = more viable cells (more ATP). Rule for the call: 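Called active when intracellular GFP, relative to negative control, is at or above 120%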.
Shown is a random part of about 50,000 reagents. About 4,000 of all reagents (8%) were called active. 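Mouse siRNA library applied to hamster cells; one well for each siRNA.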 The numbers tell different reagents against one gene apart.

Target gene | reagent | GFP, % of control | viability (ATP), % of control | outcome
Or7a42 | 1 | 45.6 | 46.9 | inactive
Or7a42 | 2 | 66.8 | 74.3 | inactive
Or7a42 | 3 | 68.8 | 71.9 | inactive
Or5bh3 | 1 | 45.5 | 33.5 | inactive
Or5bh3 | 2 | 106 | 97.5 | inactive
Or5bh3 | 3 | 75.5 | 73.4 | inactive
Mefv | 1 | 87.8 | 111 | inactive
Mefv | 2 | 115 | 90.3 | inactive
Trp53rka | 1 | 63.5 | 77.1 | inactive
Trp53rka | 2 | 146 | 91 | active
Trp53rka | 3 | 43.6 | 51.6 | inactive
Cd14 | 1 | 104 | 87.3 | inactive
Cd14 | 2 | 59.7 | 57.3 | inactive
Cd14 | 3 | 78.9 | 61.7 | inactive
Efcab6 | 1 | 30 | 48.3 | inactive
Efcab6 | 2 | 28.6 | 38.6 | inactive
Efcab6 | 3 | 113 | 122 | inactive
Cd59b | 1 | 54.1 | 54.8 | inactive
Cd59b | 2 | 109 | 89.4 | inactive
Cd59b | 3 | 94.2 | 77.2 | inactive
Sem1 | 1 | 121 | 90.4 | active
Sem1 | 2 | 79 | 73.7 | inactive
Sem1 | 3 | 54.3 | 65.8 | inactive
Fmnl3 | 1 | 47.4 | 57.2 | inactive
Fmnl3 | 2 | 82.1 | 81.9 | inactive
Fmnl3 | 3 | 95.5 | 68.8 | inactive
Kctd6 | 1 | 60.3 | 51.9 | inactive
Kctd6 | 2 | 132 | 64.9 | active
Kctd6 | 3 | 108 | 90.8 | inactive
Slc37a4 | 1 | 62.8 | 58.8 | inactive
Slc37a4 | 2 | 63.1 | 67.4 | inactive
Slc37a4 | 3 | 37.2 | 37.4 | inactive
Acat2 | 1 | 80.8 | 95.6 | inactive
Acat2 | 2 | 125 | 113 | active
Acat2 | 3 | 93 | 81.8 | inactive
Tmem184a | 1 | 110 | 98.7 | inactive
Tmem184a | 2 | 35.9 | 40.8 | inactive
Tmem184a | 3 | 70.5 | 63.2 | inactive
Spaar | 1 | 74 | 84.7 | inactive
Spaar | 2 | 107 | 89.8 | inactive
Spaar | 3 | 102 | 117 | inactive
Cox7a1 | 1 | 248 | 130 | active
Cox7a1 | 2 | 86.3 | 87 | inactive
Cox7a1 | 3 | 54.4 | 56.6 | inactive
Epc2 | 1 | 94.4 | 85.4 | inactive
Epc2 | 2 | 80.1 | 43.4 | inactive
Epc2 | 3 | 32.4 | 63.6 | inactive
Esm1 | 1 | 45.9 | 50.9 | inactive
Esm1 | 2 | 77.4 | 70.5 | inactive
Esm1 | 3 | 75.7 | 100 | inactive
Zfp319 | 1 | 48.2 | 53.8 | inactive
Zfp319 | 2 | 68.3 | 81 | inactive
Zfp319 | 3 | 79.7 | 51.5 | inactive
Rala | 1 | 132 | 128 | active
Rala | 2 | 164 | 101 | active
Rala | 3 | 58.3 | 60.4 | inactive
Rala | 4 | 76 | 107 | inactive
Rala | 5 | 94 | 102 | inactive
Rala | 6 | 77 | 95.9 | inactive
